Results reported in paper PMC12807465.

The chains behind the UniProt entries cited, without tags or fusion partners. Residues count along the entry.
UniProt P11021, residues 19-654: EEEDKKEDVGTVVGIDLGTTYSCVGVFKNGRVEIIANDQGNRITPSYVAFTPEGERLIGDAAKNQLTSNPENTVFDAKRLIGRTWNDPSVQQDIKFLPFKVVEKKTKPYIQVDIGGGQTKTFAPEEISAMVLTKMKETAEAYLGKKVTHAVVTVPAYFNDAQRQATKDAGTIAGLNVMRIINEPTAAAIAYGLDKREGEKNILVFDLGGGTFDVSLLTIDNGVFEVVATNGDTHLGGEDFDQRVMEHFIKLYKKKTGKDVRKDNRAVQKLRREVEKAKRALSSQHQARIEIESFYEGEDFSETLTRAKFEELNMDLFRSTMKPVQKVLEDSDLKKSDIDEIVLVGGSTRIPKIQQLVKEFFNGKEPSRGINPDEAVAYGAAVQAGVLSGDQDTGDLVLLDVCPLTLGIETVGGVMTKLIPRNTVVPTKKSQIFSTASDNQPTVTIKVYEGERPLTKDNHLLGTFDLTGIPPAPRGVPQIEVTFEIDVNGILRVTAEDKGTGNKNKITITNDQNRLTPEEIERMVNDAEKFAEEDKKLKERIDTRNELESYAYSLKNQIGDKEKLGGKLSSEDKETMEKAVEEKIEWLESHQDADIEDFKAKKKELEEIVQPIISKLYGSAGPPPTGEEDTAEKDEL
UniProt P30101, residues 25-505: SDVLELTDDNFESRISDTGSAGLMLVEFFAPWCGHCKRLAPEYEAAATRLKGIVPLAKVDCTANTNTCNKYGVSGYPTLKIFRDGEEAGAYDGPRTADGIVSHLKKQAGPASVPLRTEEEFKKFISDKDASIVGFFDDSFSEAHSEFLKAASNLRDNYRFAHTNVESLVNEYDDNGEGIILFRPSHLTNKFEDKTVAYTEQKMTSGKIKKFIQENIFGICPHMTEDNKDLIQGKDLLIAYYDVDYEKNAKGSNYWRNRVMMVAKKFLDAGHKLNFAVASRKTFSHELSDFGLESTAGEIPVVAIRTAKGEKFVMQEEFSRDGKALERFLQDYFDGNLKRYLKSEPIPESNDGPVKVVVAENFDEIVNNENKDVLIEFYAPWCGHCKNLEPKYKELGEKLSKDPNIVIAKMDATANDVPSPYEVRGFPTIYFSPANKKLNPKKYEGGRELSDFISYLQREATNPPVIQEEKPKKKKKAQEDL
UniProt P07237, residues 18-508: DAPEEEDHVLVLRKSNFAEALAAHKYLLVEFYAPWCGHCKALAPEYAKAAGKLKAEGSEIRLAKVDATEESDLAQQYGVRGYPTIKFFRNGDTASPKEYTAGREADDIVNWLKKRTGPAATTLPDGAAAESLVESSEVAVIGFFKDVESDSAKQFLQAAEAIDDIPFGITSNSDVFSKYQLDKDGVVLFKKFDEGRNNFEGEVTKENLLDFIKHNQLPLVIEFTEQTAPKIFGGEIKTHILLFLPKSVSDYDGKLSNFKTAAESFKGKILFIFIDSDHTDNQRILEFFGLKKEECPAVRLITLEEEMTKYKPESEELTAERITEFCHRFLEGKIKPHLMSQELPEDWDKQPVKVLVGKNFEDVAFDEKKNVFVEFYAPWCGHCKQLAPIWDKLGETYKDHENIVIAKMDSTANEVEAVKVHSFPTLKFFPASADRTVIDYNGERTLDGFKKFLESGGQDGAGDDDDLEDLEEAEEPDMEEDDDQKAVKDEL

T1: Flag-tagged UGT2B17 (UDP glucuronosyltransferase family 2 member B17), full length, expressed in prostate cancer cells (UniProt O75795)
T1 sequence: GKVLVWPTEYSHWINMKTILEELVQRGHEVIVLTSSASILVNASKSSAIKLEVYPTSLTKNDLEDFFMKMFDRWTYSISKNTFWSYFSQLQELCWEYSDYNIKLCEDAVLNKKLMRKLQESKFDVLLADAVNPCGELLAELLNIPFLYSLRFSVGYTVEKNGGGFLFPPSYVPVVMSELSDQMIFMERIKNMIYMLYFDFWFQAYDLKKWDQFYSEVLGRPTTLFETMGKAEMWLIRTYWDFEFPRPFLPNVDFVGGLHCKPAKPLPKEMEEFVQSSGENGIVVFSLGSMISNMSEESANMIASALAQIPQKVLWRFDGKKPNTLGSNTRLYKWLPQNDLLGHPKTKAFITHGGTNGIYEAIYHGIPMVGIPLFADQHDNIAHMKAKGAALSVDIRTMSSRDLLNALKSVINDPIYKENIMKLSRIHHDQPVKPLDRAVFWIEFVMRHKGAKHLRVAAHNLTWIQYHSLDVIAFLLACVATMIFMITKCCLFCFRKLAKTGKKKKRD


Each molecule was assayed against T1, Flag-tagged UGT2B17 (UDP glucuronosyltransferase family 2 member B17), full length, expressed in prostate cancer cells (assay: affinity purification with mass spectrometry; LNCaP cells transfected with Flag-tagged control, UGT2B17, C1 or C2; cytoplasmic or nuclear fractions; IP with a Flag antibody, on-bead trypsin digestion, LC-MS; n = 4 repeats).

| binding | Molecule |
| --- | --- |
| binds | BiP (from UniProt P11021 19-654) |
| binds | PDIA3 (also known as ERP57), endogenous (from UniProt P30101 25-505) |
| binds | PDIA1 (also known as P4HB), endogenous (from UniProt P07237 18-508) |
| binds | PTPN1, endogenous (enzyme, UniProt P18031 1-435) MEMEKEFEQIDKSGSWAAIYQDIRHEASDFPCRVAKLPKNKNRNRYRDVSPFDHSRIKLHQEDNDYINASLIKMEEAQRSYILTQGPLPNTCGHFWEMVWEQKSRGVVMLNRVMEKGSLKCAQYWPQKEEKEMIFEDTNLKLTLISEDIKSYYTVRQLELENLTTQETREILHFHYTTWPDFGVPESPASFLNFLFKVRESGSLSPEHGPVVVHCSAGIGRSGTFCLADTCLLLMDKRKDPSSVDIKKVLLEMRKFRMGLIQTADQLRFSYLAVIEGAKFIMGDSSVQDQWKELSHEDLEPPPEHIPPPPRPPKRILEPHNGKCREFFPNHQWVKEETQEDKDCPIKEEKGSPLNAAPYGIESMSQDTEVRSRVVGGSLRGAQAASPAKGEPSLPEKDEDHALSYWKPFLVNMCVATVLTAGAYLCYRFLFNSNT |
| binds | GANAB (protein, UniProt Q14697 29-944) ITLAVDRSNFKTCEESSFCKRQRSIRPGLSPYRALLDSLQLGPDSLTVHLIHEVTKVLLVLELQGLQKNMTRFRIDELEPRRPRYRVPDVLVADPPIARLSVSGRDENSVELTMAEGPYKIILTARPFRLDLLEDRSLLLSVNARGLLEFEHQRAPRVSQGSKDPAEGDGAQPEETPRDGDKPEETQGKAEKDEPGAWEETFKTHSDSKPYGPMSVGLDFSLPGMEHVYGIPEHADNLRLKVTEGGEPYRLYNLDVFQYELYNPMALYGSVPVLLAHNPHRDLGIFWLNAAETWVDISSNTAGKTLFGKMMDYLQGSGETPQTDVRWMSETGIIDVFLLLGPSISDVFRQYASLTGTQALPPLFSLGYHQSRWNYRDEADVLEVDQGFDDHNLPCDVIWLDIEHADGKRYFTWDPSRFPQPRTMLERLASKRRKLVAIVDPHIKVDSGYRVHEELRNLGLYVKTRDGSDYEGWCWPGSAGYPDFTNPTMRAWWANMFSYDNYEGSAPNLFVWNDMNEPSVFNGPEVTMLKDAQHYGGWEHRDVHNIYGLYVHMATADGLRQRSGGMERPFVLARAFFAGSQRFGAVWTGDNTAEWDHLKISIPMCLSLGLVGLSFCGADVGGFFKNPEPELLVRWYQMGAYQPFFRAHAHLDTGRREPWLLPSQHNDIIRDALGQRYSLLPFWYTLLYQAHREGIPVMRPLWVQYPQDVTTFNIDDQYLLGDALLVHPVSDSGAHGVQVYLPGQGEVWYDIQSYQKHHGPQTLYLPVTLSSIPVFQRGGTIVPRWMRVRRSSECMKDDPITLFVALSPQGTAQGELFLDDGHTFNYQTRQEFLLRRFSFSGNTLVSSSADPEGHFETPIWIERVVIIGAGKPAAVVLQTKGSPESRLSFQHDPETSVLVLRKPGINVASDWSIHLR |
| binds | ERP44 (protein, UniProt Q9BS26 30-406) EITSLDTENIDEILNNADVALVNFYADWCRFSQMLHPIFEEASDVIKEEFPNENQVVFARVDCDQHSDIAQRYRISKYPTLKLFRNGMMMKREYRGQRSVKALADYIRQQKSDPIQEIRDLAEITTLDRSKRNIIGYFEQKDSDNYRVFERVANILHDDCAFLSAFGDVSKPERYSGDNIIYKPPGHSAPDMVYLGAMTNFDVTYNWIQDKCVPLVREITFENGEELTEEGLPFLILFHMKEDTESLEIFQNEVARQLISEKGTINFLHADCDKFRHPLLHIQKTPADCPVIAIDSFRHMYVFGDFKDVLIPGKLKQFVFDLHSGKLHREFHHGPDPTDTAPGEQAQDVASSPPESSFQKLAPSEYRYTLLRDRDEL |

Results are given in words; binding and its absence hold for the method and conditions named. Binding seen in cells or lysates may run through a third protein. Here binding means that the protein was enriched with, or labelled near, the bait; the list need not be complete. Where a sequence is shown, tags or fusion partners need not be part of it.
